These results are taken from publication PMC10681733.

Amino acid sequences for entries named in this document (tags omitted).
UniProt O09106: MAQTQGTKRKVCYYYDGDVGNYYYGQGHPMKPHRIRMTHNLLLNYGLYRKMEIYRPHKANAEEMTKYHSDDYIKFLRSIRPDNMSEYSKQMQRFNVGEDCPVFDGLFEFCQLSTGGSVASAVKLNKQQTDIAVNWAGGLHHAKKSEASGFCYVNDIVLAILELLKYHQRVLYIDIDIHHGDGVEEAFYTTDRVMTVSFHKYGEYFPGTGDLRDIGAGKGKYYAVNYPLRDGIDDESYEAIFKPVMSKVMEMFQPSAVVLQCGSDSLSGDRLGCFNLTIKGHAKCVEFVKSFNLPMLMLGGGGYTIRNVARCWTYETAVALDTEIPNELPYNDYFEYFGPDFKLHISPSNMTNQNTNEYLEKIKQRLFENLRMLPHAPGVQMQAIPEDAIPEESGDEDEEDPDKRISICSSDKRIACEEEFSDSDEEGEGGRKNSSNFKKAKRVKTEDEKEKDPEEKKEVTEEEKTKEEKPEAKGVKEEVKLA
UniProt Q13547: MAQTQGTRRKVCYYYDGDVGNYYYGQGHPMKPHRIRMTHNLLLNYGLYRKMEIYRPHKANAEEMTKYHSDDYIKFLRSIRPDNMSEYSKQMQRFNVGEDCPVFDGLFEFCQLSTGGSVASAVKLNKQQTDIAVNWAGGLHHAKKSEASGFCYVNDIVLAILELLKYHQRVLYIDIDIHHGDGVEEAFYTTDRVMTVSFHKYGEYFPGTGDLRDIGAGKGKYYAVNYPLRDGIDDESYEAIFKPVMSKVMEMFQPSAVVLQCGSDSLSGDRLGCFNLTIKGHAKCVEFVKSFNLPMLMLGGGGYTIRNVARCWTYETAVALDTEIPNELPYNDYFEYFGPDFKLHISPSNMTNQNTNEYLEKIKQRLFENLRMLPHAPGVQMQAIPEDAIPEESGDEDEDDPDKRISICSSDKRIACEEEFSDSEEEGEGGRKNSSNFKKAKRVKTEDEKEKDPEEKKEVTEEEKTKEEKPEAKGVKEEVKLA
UniProt Q92769: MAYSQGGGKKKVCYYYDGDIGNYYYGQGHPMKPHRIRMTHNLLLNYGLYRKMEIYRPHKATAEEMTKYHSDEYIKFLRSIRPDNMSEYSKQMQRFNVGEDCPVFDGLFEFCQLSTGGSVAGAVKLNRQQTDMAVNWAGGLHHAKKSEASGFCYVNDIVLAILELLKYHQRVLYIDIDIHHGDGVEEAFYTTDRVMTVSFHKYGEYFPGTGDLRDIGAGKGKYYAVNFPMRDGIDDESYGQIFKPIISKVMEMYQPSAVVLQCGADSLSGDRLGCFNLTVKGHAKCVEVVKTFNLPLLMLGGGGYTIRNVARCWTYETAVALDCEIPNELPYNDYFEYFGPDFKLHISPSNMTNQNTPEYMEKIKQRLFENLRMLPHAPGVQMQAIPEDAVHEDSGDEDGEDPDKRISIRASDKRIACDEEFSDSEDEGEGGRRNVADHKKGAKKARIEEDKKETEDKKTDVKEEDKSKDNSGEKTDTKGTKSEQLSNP

These are yes or no findings as the source states them, for the method shown. Binding seen in cells or lysates may run through a third protein. Some entries that bind do so weakly or less than the wild type.

The target in test [1] is T1, Genetic suppressor element 1 (GSE1) (human (endogenous in HAP1)) (UniProt Q14687).
T1 sequence: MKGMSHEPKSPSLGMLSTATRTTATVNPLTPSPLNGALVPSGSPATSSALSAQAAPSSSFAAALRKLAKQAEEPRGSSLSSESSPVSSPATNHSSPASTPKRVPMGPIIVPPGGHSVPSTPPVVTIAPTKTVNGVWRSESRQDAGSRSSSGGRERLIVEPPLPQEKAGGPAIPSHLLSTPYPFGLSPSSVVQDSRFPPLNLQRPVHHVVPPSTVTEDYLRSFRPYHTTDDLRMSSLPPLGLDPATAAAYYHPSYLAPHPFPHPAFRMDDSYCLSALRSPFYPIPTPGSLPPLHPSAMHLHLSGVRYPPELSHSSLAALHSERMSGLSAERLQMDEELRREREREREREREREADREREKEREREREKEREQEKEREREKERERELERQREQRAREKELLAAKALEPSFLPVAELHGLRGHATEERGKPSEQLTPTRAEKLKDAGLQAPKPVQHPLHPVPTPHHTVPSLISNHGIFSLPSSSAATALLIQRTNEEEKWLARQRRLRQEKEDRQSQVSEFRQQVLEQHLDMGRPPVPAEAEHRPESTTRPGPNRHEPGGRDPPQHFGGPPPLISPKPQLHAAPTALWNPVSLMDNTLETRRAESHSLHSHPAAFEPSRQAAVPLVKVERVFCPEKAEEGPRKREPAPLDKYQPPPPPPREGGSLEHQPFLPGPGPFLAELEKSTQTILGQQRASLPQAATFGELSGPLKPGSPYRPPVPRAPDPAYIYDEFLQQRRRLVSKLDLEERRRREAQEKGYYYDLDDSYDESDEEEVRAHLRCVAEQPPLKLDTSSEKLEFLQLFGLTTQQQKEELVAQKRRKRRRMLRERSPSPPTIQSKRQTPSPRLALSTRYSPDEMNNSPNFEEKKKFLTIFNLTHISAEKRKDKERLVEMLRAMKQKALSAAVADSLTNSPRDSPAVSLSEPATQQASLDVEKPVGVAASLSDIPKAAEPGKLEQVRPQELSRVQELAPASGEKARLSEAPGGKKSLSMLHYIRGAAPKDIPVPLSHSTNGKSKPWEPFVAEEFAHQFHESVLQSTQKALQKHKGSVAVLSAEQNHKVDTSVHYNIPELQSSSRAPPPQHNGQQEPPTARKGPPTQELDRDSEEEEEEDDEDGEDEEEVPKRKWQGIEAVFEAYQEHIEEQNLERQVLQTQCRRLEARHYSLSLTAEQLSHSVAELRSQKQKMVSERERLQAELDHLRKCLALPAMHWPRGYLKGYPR
As to the kind of experiment: co-IP; GSE1-specific antibody IP from whole-cell lysates of transgenic HAP1 cells expressing FLAG-tagged HDAC1 or HDAC2 variants, Protein A/G Dynabeads, Hunt buffer; control anti-mouse IgG; western blot and deacetylase activity on beads.

Test [2] has as its target HDAC1 (mouse) (mouse (endogenous in MEFs and murine Th1 T-cells)) (UniProt O09106). Kind of test: co-IP; co-IP/western blot of HDAC1-GSE1 from whole-cell lysates of HAP1, MEFs and murine Th1 T-cells; HDAC1 KO HAP1 cells as negative control; precipitating antibody not told in the legend. In general terms: In western blotting, separated proteins are transferred to a membrane and probed.

For test [3], the target named is HDAC1 (endogenous, human) (human (endogenous in HAP1)) (UniProt Q13547). Described as above.
Test [4] addresses T2, USP22 (human (endogenous in HAP1)) (UniProt Q9UPT9).
T2 sequence: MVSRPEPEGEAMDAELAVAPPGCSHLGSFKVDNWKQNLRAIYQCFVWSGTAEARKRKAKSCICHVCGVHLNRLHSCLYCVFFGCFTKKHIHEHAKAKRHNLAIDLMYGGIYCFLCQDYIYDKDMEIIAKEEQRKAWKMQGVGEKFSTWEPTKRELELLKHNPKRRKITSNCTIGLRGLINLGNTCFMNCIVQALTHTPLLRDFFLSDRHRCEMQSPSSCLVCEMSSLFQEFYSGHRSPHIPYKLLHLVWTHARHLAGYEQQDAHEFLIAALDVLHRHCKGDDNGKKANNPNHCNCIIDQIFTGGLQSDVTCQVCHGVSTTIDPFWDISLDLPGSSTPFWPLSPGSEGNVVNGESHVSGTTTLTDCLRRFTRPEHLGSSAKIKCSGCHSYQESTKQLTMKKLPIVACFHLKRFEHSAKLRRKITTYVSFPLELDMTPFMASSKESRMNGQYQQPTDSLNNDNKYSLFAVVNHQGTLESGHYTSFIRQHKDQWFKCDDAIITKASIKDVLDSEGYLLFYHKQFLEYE
Kind of test: co-IP; endogenous USP22 immunoprecipitated (USP22 antibody, Dynabeads, Hunt buffer) from whole-cell lysates of HAP1 WT cells, basal and etoposide treated; also HDAC1 KO, 53BP1 KO and trichostatin A treated cells; western blot.

“C-terminally FLAG-tagged wildtype HDAC2 (from UniProt Q92769 1-488)”: the binding result in test [1] was “binds”.
For “C-terminally FLAG-tagged wildtype HDAC1 (from UniProt Q13547 1-482)”, in test [1], the binding entry is on record as “binds”.

B1: GSE1 (mouse) (protein, UniProt Q3U3C9 1-1213)
chain: MKGMSHEPKSPSIGMLSTATRTTATVNPLTPSPLNGALVPTGSPATSSTLSAQAAPSSSFAAALRKLAKQAEEPRGSSLSSESSPVSSPATNHSSPASTPKRVPMGPIIVPPGGHSVPSTPPVVTIAPTKTVNGVWRSESRQDSGSRGSSSGRERLLVEPPLAQEKAAGPAIPSHLLSTPYPFGLSPGSVVQDSRFQPLNLQRPVHHVVPPSTVTEDYLRSFRPYHTAEDLRMSSLPPLGLDPATAAAYYHPSYLAPHPFPHPAFRMDDSYCLSALRSPFYPIPTPGSLPPLHPSAMHLHLSGVRYPPELSHSSLAALHSERMSSLSAERLQMDEELRREREREREREREADREREKEREREQREKEREKELEREREKERERELERQREQRAREKELLAAKALEPTTFLPVAELHGLRGHSTEERPKPSEQLTPTRAEKLKDVGLQAPKPVQHPLHPVPAPHHTVPSLISSHGIFSLPGSSATTALLIQRTNEEEKWLARQRRLRQEKEDRQSQVSEFRQQVLEQHLDLGRPLVPTEAEHRPESTRPGTNRHEQGSREPPQHFGGPPPLISPKPQQHTVPTALWNPVSLMDNALETRRAESHSLHSHPTAFEPSRQAAVPLVKVERVYCSEKAEEPRKREATPLDKYQPPPPPPPPREAGSLEPQTFPHGPGPFLTELEKSTQTILGQQRPSLSQATSFGELSGPLKPGSPYCHPTARGPDPAYIYDEFLQQRRKLVSKLDLEERRRREAQEKGYYYDLDDSYDESDEEEVRAHLRCVAEQPPLKLDTSSEKLEFLQLFGLTTQQQKEELVAQKRRKRRRMLRERSPSPPAVQCKRQTPSPRLALSTRYSPDEMNNSPNFEEKRKFLTFFNLTHISAEKRKDKERLVEMLRAMKQRALSAADSVTNSSRDSPPVSLSEPATQPAPLETDQPVGVPASLSDVPKTTETGRLEQLRPQELLRVQEPAPPSGEKARLSEAPGGKKSLSMLHYLRGAAPKDIPVPLSHSINGKSKPWEPFVAEEFAHQFHESVLQSTQKALQKHKGNSALLSAEQSHKVDTAIHYNIPELQSSSRVPLPQHNGQQEPPMGRKGPPMQEADQDSEEDSEEDSEEEAEEAPRRQWQGIEAIFEAYQEHIEEQNLERQVLQTQCRRLEAQNYSLSLTAEQLSHSMAELRSQKQKMVSERERLQAELDHLRKCLALPTMHWPRGYFKGYPR
For B1, the binding entry in test [2] is “binds”.

B2: Genetic suppressor element 1 (GSE1) (protein, UniProt Q14687 1-1217)
chain: T1 sequence
With B2, the binding entry in test [3] and in test [4] was “binds” throughout.
